“And” between values parts separate entries of the source, which are not always exact repeats. Equal values may be shown once. Where a name gives a salt, the structure may show the parent alone. ± gives the standard deviation of the averaged measurements. Some of the results follow. Single values of this set are uncertain.

This assay deals with Salmonella enterica serovar Typhimurium ST313 D23580. In words: normalized bacterial growth (OD600 20 h minus 0 h, interquartile-mean normalized) (fraction of plate interquartile mean); higher = more bacterial growth (less inhibition). The conditions noted are these: LPM (pH 5.8, low phosphate, low Mg2+), concentration: 10 µM, temperature: 37 °C.
Molecule `CNC[C@H](O)c1ccc(O)c(O)c1` [(-)-Epinephrine bitartrate] registered a normalized bacterial growth of 0.884.
For `CNC[C@H](O)c1ccc(O)c(O)c1` the value was 1.13.
Turning to `CNC[C@H](O)c1ccc(O)c(O)c1` [()-Epinephrine hydrochloride], the normalized bacterial growth was 0.926.
On to `Cn1c(=O)c2nc(C3CCCC3)[nH]c2n(C)c1=O`, for which the normalized bacterial growth was determined as 0.987.
`Cc1c[nH]c2ccccc12`: the normalized bacterial growth is 1.1.
For `O=c1cc(-c2ccc(O)cc2)oc2ccc(O)cc12` the value was 1.02.
Molecule `CC(=O)NS(=O)(=O)c1ccc(NC(=O)c2ccccc2C(=O)O)cc1` yielded a normalized bacterial growth of 0.856.
`CC[C@H](C)[C@H](N)C1=N[C@H](C(=O)N[C@@H](CC(C)C)C(=O)N[C@H](CCC(=O)O)C(=O)N[C@H](C(=O)N[C@H]2CCCCNC(=O)[C@H](CC(N)=O)NC(=O)[C@@H](CC(=O)O)NC(=O)[C@H](Cc3cnc[nH]3)NC(=O)[C@@H](Cc3ccccc3)NC(=O)[C@H]([C@@H](C)CC)NC(=O)[C@@H](CCCN)NC2=O)[C@@H](C)CC)CS1` [Bacitracin] returned a normalized bacterial growth of 1.46.
For the molecule `CC[C@H](C)[C@H](N)C1=N[C@H](C(=O)N[C@@H](CC(C)C)C(=O)N[C@H](CCC(=O)O)C(=O)N[C@H](C(=O)N[C@H]2CCCCNC(=O)[C@H](CC(N)=O)NC(=O)[C@@H](CC(=O)O)NC(=O)[C@H](Cc3cnc[nH]3)NC(=O)[C@@H](Cc3ccccc3)NC(=O)[C@H]([C@@H](C)CC)NC(=O)[C@@H](CCCN)NC2=O)[C@@H](C)CC)CS1`, the normalized bacterial growth is 1.42.
`CC(=O)C1=C(O)C=C2Oc3c(C(C)=O)c(O)c(C)c(O)c3[C@]2(C)C1=O` yielded a normalized bacterial growth of 1.02.
Turning to `O=C(CCc1ccc(O)cc1)c1c(O)cc(O)cc1O`, the normalized bacterial growth amounted to 0.94.
In the case of `CC1(C)C2CCC1(C)C(O)C2` (stereo not drawn), the normalized bacterial growth amounted to 1.01.
The molecule `Oc1c(Cl)cc(Cl)c(Cl)c1Cc1c(O)c(Cl)cc(Cl)c1Cl` yielded a normalized bacterial growth of 0.135.
On to `Cc1c(N(C)C)c(=O)n(-c2ccccc2)n1C`, for which the normalized bacterial growth amounted to 0.85.
`CCCCC[C@H](O)/C=C/C1=C(CCCCCCC(=O)O)C(=O)CC1`: the normalized bacterial growth came out at 0.446.
Turning to `CCCc1c(-c2ccc(O)cc2)nn(-c2ccc(O)cc2)c1-c1ccc(O)cc1` ["1,3,5-tris(4-hydroxyphenyl)-4-propyl-1H-pyrazole"], the normalized bacterial growth came out at 0.753.
As for `COc1ccc(/C=C/C(=O)Nc2ccccc2C(=O)O)cc1OC` [Tranilast], the normalized bacterial growth is 1.29.
Turning to `CC(=O)N1CCCC1C(=O)O` (stereo not drawn), the normalized bacterial growth is 0.895.
`CCOC(=O)C1=C(COCCN)NC(C)=C(C(=O)OC)C1c1ccccc1Cl` (stereo not drawn) displayed a normalized bacterial growth of 0.902.
For the molecule `Oc1ccc(/C=C/c2cc(O)cc(O)c2)cc1`, the normalized bacterial growth came to 0.926.
The molecule `CCCCCCCCCCCCCCC(C(=O)O)C(O)(CC(=O)OC)C(=O)O` (stereo not drawn) returned a normalized bacterial growth of 1.79.
The molecule `COc1ccccc1N1CCN(CCCCN2C(=O)c3ccccc3C2=O)CC1` [NAN-190 hydrobromide] gave a normalized bacterial growth of 0.949.
For the molecule `CN1[C@@H]2CC[C@H]1C[C@@H](OC(=O)c1c[nH]c3ccccc13)C2` [Tropisetron HCl], the normalized bacterial growth was 0.826.
For `Cc1cccc(C)c1OCC(C)N` (stereo not drawn) [Mexiletene hydrochloride], the normalized bacterial growth is 1.07.
As to `NC[C@@H]1O[C@H](O[C@H]2[C@@H](O)[C@H](O[C@@H]3[C@@H](O)[C@H](N)C[C@H](N)[C@H]3O[C@H]3O[C@H](CO)[C@@H](O)[C@H](O)[C@H]3N)O[C@@H]2CO)[C@H](N)[C@@H](O)[C@@H]1O`, the normalized bacterial growth stood at 0.91.
As to `NC[C@@H]1O[C@H](O[C@H]2[C@@H](O)[C@H](O[C@@H]3[C@@H](O)[C@H](N)C[C@H](N)[C@H]3O[C@H]3O[C@H](CO)[C@@H](O)[C@H](O)[C@H]3N)O[C@@H]2CO)[C@H](N)[C@@H](O)[C@@H]1O` [Paromomycin sulfate], the normalized bacterial growth came to 0.9432 ± 0.0075.
In turn, `COc1cc(C)c2c(c1C=O)Oc1c(c(C)c(O)c3c1C(O)OC3=O)OC2=O` (stereo not drawn) returned a normalized bacterial growth of 0.99.
As for `CC[C@]1(O)C[C@H]2CN(CCc3c([nH]c4ccccc34)[C@@](C(=O)OC)(c3cc4c(cc3OC)N(C=O)[C@H]3[C@@](O)(C(=O)OC)[C@H](OC(C)=O)[C@]5(CC)C=CCN6CC[C@]43[C@@H]65)C2)C1` [Vincristine sulfate], the normalized bacterial growth was 0.922.
Consider `CC[C@]1(O)C[C@H]2CN(CCc3c([nH]c4ccccc34)[C@@](C(=O)OC)(c3cc4c(cc3OC)N(C=O)[C@H]3[C@@](O)(C(=O)OC)[C@H](OC(C)=O)[C@]5(CC)C=CCN6CC[C@]43[C@@H]65)C2)C1`, for which the normalized bacterial growth is 0.748 and 0.788.
The molecule `COc1ccccc1OCC(O)CO` (stereo not drawn) gave a normalized bacterial growth of 0.876.
In turn, `Cc1cc(=O)[nH]c(=S)[nH]1` registered a normalized bacterial growth of 1.16.
With `CC(=O)[C@H]1CC[C@H]2[C@@H]3C=CC4=CC(=O)CC[C@@]4(C)[C@@H]3CC[C@]12C` [Dydrogesterone], the normalized bacterial growth came out at 0.813.
Molecule `NC(N)=NC(N)=Nc1cccc(Cl)c1` [1-(m-Chlorophenyl)-biguanide hydrochloride] came in with a normalized bacterial growth of 1.
For `C[C@H]1O[C@@H](O[C@H]2[C@@H](O)C[C@H](O[C@H]3[C@@H](O)C[C@H](O[C@H]4CC[C@@]5(C)[C@H](CC[C@@H]6[C@@H]5C[C@@H](O)[C@]5(C)[C@@H](C7=CC(=O)OC7)CC[C@]65O)C4)O[C@@H]3C)O[C@@H]2C)C[C@H](O)[C@@H]1O` [Digoxin] the value was 0.711; for `C[C@H]1O[C@@H](O[C@H]2[C@@H](O)C[C@H](O[C@H]3[C@@H](O)C[C@H](O[C@H]4CC[C@@]5(C)[C@H](CC[C@@H]6[C@@H]5C[C@@H](O)[C@]5(C)[C@@H](C7=CC(=O)OC7)CC[C@]65O)C4)O[C@@H]3C)O[C@@H]2C)C[C@H](O)[C@@H]1O`, 0.648; for `COc1cc([S+](C)[O-])ccc1-c1nc2cccnc2[nH]1` (stereo not drawn) [Sulmazole], 1.14.
With `O=c1ccc2cc(O)c(O)cc2o1`, the normalized bacterial growth turned out to be 0.945.
`C[C@H](CCC(=O)O)[C@H]1CC[C@H]2[C@@H]3[C@H](O)C[C@@H]4C[C@H](O)CC[C@]4(C)[C@H]3C[C@H](O)[C@]12C` yielded a normalized bacterial growth of 0.838.
The molecule `CC(=O)OC1CCC2(C)C(=CCC3C2CCC2(C)C(C(C)CCCC(C)C)CCC32)C1` (stereo not drawn) registered a normalized bacterial growth of 1.15.
With `O=C(OCC(O)CO)c1ccccc1Nc1ccnc2cc(Cl)ccc12` (stereo not drawn) the figure was 0.987; with `O=C(OCC(O)CO)c1ccccc1Nc1ccnc2cc(Cl)ccc12` (stereo not drawn) [Glafenine hydrochloride], 0.904; with `CC(C(=O)O)c1ccc(-c2ccccc2)c(F)c1` (stereo not drawn), 0.567.
On to `Cc1cc(O)c2c(c1)C(=O)c1cccc(O)c1C2=O`, for which the normalized bacterial growth was found to be 0.781.
